Test results taken from publication PMC7266957.

Target: N-His-Cas7fv of Shewanella putrefaciens CN-32 (Shewanella putrefaciens CN-32)
Experiment: co-purification (Ni-NTA affinity chromatography, then SEC); Cascade components and crRNA co-expressed in E. coli; His-tag on Cas7fv (I-Fv) or Cas7f (I-F); HisTrap HP, then HiLoad 16/600 Superdex 200 pg; complex formation corroborated by SDS-PAGE, Urea-PAGE and mass spectrometry

binding: binds
B1: Cas6f of Shewanella putrefaciens CN-32 (protein, UniProt A0ABX8XGP4 1-224)
chain: MKYYLDITLLPDAEANLGFLWHKVYQQIHLMLVEHKVSVENSAIGLSFPKYDAKSFSDNTKFPLGDKLRLFAGTEQQLADLKVAQWLARLADYVHIKAIKAVPDNVSEYAYFKRRHFKSPDKLRRNIDARAIVIAQKNGFDINEVKTRLLASIDNLDTKSKLPFINLRSLSTEKDVSPADRRKFLLFIECEKVTKPSQNNGLFNCYGLSRRAQTEQAAVPWFEG

Results are given in words; binding and its absence hold for the method and conditions named. In cells and extracts the contact can be indirect. Binding can be weak; no strength is given.
